Primary screen of a compound library

Sequences of proteins named here, by UniProt entry; tags and fusion partners are left off. Residues count along the entry.
UniProt Q8IDJ8, 1-583: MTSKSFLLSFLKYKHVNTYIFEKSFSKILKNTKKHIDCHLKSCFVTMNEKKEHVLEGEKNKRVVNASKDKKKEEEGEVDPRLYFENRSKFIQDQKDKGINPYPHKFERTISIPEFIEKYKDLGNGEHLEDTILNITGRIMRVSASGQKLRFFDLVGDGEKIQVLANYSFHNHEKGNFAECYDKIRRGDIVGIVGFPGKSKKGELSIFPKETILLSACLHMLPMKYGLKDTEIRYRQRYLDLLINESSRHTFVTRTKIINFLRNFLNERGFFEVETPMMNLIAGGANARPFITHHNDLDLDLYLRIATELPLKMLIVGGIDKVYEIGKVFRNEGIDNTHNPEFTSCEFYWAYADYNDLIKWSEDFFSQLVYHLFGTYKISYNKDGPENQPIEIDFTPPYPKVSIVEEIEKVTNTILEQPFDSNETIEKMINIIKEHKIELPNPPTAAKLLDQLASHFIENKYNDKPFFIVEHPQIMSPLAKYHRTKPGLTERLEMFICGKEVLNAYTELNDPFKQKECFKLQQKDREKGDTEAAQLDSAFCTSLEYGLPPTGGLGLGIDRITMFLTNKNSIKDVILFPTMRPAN
UniProt Q4DA54, 1-478: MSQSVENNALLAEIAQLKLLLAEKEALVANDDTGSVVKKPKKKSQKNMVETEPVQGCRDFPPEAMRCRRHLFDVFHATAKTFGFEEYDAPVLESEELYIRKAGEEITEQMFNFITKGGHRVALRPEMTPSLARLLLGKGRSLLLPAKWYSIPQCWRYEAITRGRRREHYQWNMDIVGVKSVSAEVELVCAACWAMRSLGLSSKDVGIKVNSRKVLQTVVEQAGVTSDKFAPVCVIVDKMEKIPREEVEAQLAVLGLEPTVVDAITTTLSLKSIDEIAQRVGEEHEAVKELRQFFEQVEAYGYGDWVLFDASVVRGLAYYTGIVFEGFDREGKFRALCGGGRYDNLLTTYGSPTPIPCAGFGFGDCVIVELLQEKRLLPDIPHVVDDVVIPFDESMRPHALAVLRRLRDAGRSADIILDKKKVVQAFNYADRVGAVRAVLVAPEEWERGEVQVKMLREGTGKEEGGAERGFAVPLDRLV

Measurements from “University of Dundee, Small-Polar-MMV Screening Library” (2021), ChEMBL document CHEMBL3988442.

Each number is a percent effect as filed. How 0% and 100% were set is not recorded. Most values in the screen are low, and negative values occur. Compounds were drawn at random from those tested, without regard to their results.

Leishmania in macrophages: 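Cell assay of Leishmania donovani living inside macrophages; the read-out is not stated. Tested at 30 µM. Direction is inferred from retests: higher values go with stronger inhibition. Of about 69,000 compounds tested this way, about 1,000 (1.5%) reached 50% or more in at least one test.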
T. brucei: 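Whole-parasite assay of Trypanosoma brucei over 72 hours; the read-out is not stated. Tested at 30 µM. The record gives no direction; compounds that gave an IC50 in retests scored well above the rest, so higher reads as stronger inhibition. Values scatter widely below zero; nearly all retest evidence comes from the higher of the two concentrations used. About 64,000 compounds were tested under these conditions; 1.5% (about 940) showed 50% or more at least once.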
Toxoplasma: 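Assay of Toxoplasma gondii numbers, read through their beta-galactosidase reporter with a colour substrate. Compounds at 10 µM. The record gives no direction; the compounds picked for IC50 retests had high values, so higher reads as fewer parasites. About 67,000 compounds were tested under these conditions; 0.38% (about 260) showed 50% or more at least once.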
PfKRS1: 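Lysine-tRNA ligase, Plasmodium falciparum 3D7 (UniProt Q8IDJ8). Enzyme assay of the cytosolic lysyl-tRNA synthetase in 384-well plates, read by luminescence. Tested at 30 µM. Direction is inferred from only a few compounds that gave an IC50; most scored high, so higher reads as stronger inhibition. About 69,000 compounds were tested under these conditions; 0.071% (about 49) showed 50% or more at least once.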
TcHisRS: 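Histidine-tRNA ligase, Trypanosoma cruzi CL Brener (UniProt Q4DA54). Enzyme assay of histidyl-tRNA synthetase; the read-out is not stated. Compounds at 30 µM. Higher reads as stronger inhibition (inferred: compounds with an IC50 in retests scored well above the rest). Size under these conditions: about 69,000 compounds, about 31 of them at 50% or above in at least one test.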

- [H][C@@]12CCN(Cc3ccncc3)C[C@@]1([H])O[C@H](C)C2 | Leishmania in macrophages: 10.79%; T. brucei: 23.93%; Toxoplasma: -12.76%
- CC(C)CN1CCCn2nc(CNC(=O)c3cccnc3O)cc2C1 | Leishmania in macrophages: 18.25%; T. brucei: 26.5%; Toxoplasma: -0.3304%; PfKRS1: 0.5117%; TcHisRS: -1.245%
- O=S(=O)(N[C@H]1CC[C@H]1NC1Cc2ccccc2C1)c1cccnc1 | Leishmania in macrophages: 10.2%; T. brucei: -15.57%; Toxoplasma: -8.049%; PfKRS1: 11.07%; TcHisRS: 9.827%
- Cc1nc(C(C)C)sc1C(=O)NCCn1ccnc1 | Leishmania in macrophages: 7.816%; T. brucei: 6.762%; Toxoplasma: 1.429%; PfKRS1: 4.041%; TcHisRS: 14.29%
- Cc1[nH]c2c(C)cccc2c1CC(=O)N(C)CCN(C)C.O=C(O)CC(O)(CC(=O)O)C(=O)O | Leishmania in macrophages: 16.9%; T. brucei: -16.07%; Toxoplasma: 21.12%
- NC(=O)C(CNC(=O)Cc1ccc(F)cc1)Cc1ccc(F)cc1 (stereo not drawn) | Leishmania in macrophages: 16.98%; T. brucei: -16.14%; Toxoplasma: -2.564%; PfKRS1: 2.565%; TcHisRS: 4.348%
- COc1ccc(CNC(=O)CN2CCc3ccccc32)cc1 | Leishmania in macrophages: 0.4718%; T. brucei: -105.2%; Toxoplasma: -3.034%; PfKRS1: 4.802%; TcHisRS: -1.97%
- Cc1ccc(C(=O)N2CCC3(CC2)C(=O)NCCN3C)cc1O | Leishmania in macrophages: -22.45%; T. brucei: -5.883%; Toxoplasma: -33.88%; PfKRS1: 5.928%; TcHisRS: 8.8%
- CC(CNC(=O)c1ccn(-c2ccc(F)cc2)n1)Cn1cccn1 (stereo not drawn) | Leishmania in macrophages: 2.873%; T. brucei: -26.46%; Toxoplasma: 1.05%; PfKRS1: 1.721%; TcHisRS: 2.924%
- CC(=O)N1Cc2cnc(C(C)(C)C)nc2C1 | Leishmania in macrophages: -80.64%; T. brucei: -160.9%; Toxoplasma: -6.163%; PfKRS1: -7.65%; TcHisRS: -22.83%
- O=C(c1cc2ccccc2c(=O)[nH]1)N1CCN(CCO)CC1 | Leishmania in macrophages: 0.08266%; T. brucei: -11.09%; Toxoplasma: 0.3367%; PfKRS1: -4.683%; TcHisRS: 4.167%
- CC(=O)c1cccc(NC(=O)N(CC(F)F)C2CC2)c1 | Leishmania in macrophages: -20.82%; T. brucei: 13.71%; Toxoplasma: 9.419%; PfKRS1: -6.016%; TcHisRS: 1.667%
- CCN1CCC(NC(=O)CN2CCCCC2Cn2cncn2)CC1 (stereo not drawn) | Leishmania in macrophages: 1.729%; T. brucei: -18.12%; Toxoplasma: -9.187%; PfKRS1: 3.384%; TcHisRS: 3.944%
- COc1ccc(CNCC(O)c2cccc(O)c2)cc1Br (stereo not drawn) | Leishmania in macrophages: 19.39%; T. brucei: 32.17%; Toxoplasma: -15.3%; PfKRS1: 4.304%; TcHisRS: 2.4%
- CS(=O)(=O)N1CCC2(CN(C(=O)c3cccnc3)C2)C1.O=C(O)C(F)(F)F | Leishmania in macrophages: -8.382%; T. brucei: -23.87%; Toxoplasma: 20.67%
- NC(=O)c1ccc(OCC(=O)N2CCCC(n3cccn3)C2)cc1 (stereo not drawn) | Leishmania in macrophages: 13.46%; T. brucei: -32.85%; Toxoplasma: -4.43%; PfKRS1: 7.234%; TcHisRS: 2.642%
- O=C(CN1CCCC1Cn1cncn1)Nc1cccnc1 (stereo not drawn) | Leishmania in macrophages: 26.21%; T. brucei: -19.41%; Toxoplasma: -0.9305%; PfKRS1: 0.5746%; TcHisRS: 4.065%
- O=S(=O)(C1CC1)N1CCC2(COCc3cnc(-c4cccnc4)nc32)C1 (stereo not drawn) | Leishmania in macrophages: 46.12%; T. brucei: -71.56%; Toxoplasma: 0.9559%; PfKRS1: 1.864%; TcHisRS: 1.058%
- Clc1ccc(C(CNCc2cccnc2)n2cccn2)cc1 (stereo not drawn) | Leishmania in macrophages: -7.408%; Toxoplasma: 2.713%; PfKRS1: -1.374%; TcHisRS: 8.333%
- COCc1nc(C(=O)N2CCCC(n3nc(C)nc3C)C2)cs1 (stereo not drawn) | Leishmania in macrophages: -22.5%; T. brucei: -39.19%; Toxoplasma: 5.458%; PfKRS1: -1.165%; TcHisRS: 0.2907%
- Cc1nc(CCNC(=O)c2cc(C(C)C)nn2C)sc1C | Leishmania in macrophages: 25.59%; T. brucei: -44.11%; Toxoplasma: 10.98%; PfKRS1: 0.7509%; TcHisRS: 10.1%
- CCc1nc(CN(CCc2ccccc2)C2CCN(C)CC2)no1 | Leishmania in macrophages: 16.29%; Toxoplasma: -7.278%; PfKRS1: 4.376%; TcHisRS: 2.899%
- CC(C#N)CSc1ccccc1NCC(=O)NCc1ccccc1 (stereo not drawn) | Leishmania in macrophages: 21.08%; T. brucei: -74.2%; Toxoplasma: -1.314%; PfKRS1: 2.376%; TcHisRS: -0.8264%
- Cc1cnc(NC(=O)c2csc(NC3CCCC3)n2)s1 | Leishmania in macrophages: 92.33%; T. brucei: -9.891%; Toxoplasma: 23.99%; PfKRS1: 4.1%; TcHisRS: 9.845%

For reference, 2 entries once more:

| compound | Leishmania in macrophages | T. brucei | Toxoplasma | PfKRS1 | TcHisRS |
|---|---|---|---|---|---|
| `CCN1CCC(NC(=O)CN2CCCCC2Cn2cncn2)CC1` (stereo not drawn) | 1.729 | -18.12 | -9.187 | 3.384 | 3.944 |
| `CC(=O)N1Cc2cnc(C(C)(C)C)nc2C1` | -80.64 | -160.9 | -6.163 | -7.65 | -22.83 |